Here are results for 3 substances from article PMC6070450 (EJNMMI Research, 2018).

Some peptides are written in HELM: one residue between dots, names in brackets for other building blocks, links after the first $.

This data set is described as follows: general procedure: Fmoc solid-phase peptide synthesis; Rink-Amide methylbenzylhydryl (MBHA) resin; DIC/HOBt. Particulars: whole synthesis, analytical reversed phase HPLC.
With “HYNIC-(4-Cl)-Phe-Cyclo(D-Cys-Tyr-D-Trp-Lys-Thr-Cys)-D-Tyr-NH2”, the “final HPLC purity” value is on record as 97%.
For “PEPTIDE1{[DOTA].[4ClPhe].[dC].Y.[dW].K.T.C.[dY].[am]}$PEPTIDE1,PEPTIDE1,3:R3-8:R3$$$V2.0”, the “final HPLC purity” value was 99.5%.
The result for “PEPTIDE1{[N4].[4ClPhe].[dC].Y.[dW].K.T.C.[dY].[am]}$PEPTIDE1,PEPTIDE1,3:R3-8:R3$$$V2.0” reads 98%.
